Data as given in PubChem BioAssay AID1259425 (University of Nebraska Medical Center, 2018)
Assay: 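Compare each knockdown with KSR1 silencing using changes in marker transcripts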 (primary screen). Cell system: HCT116 human colon cancer cells. Knock-down reagent: siRNA pool against human genes, 50 nM siRNA. Read-out: 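mRNA of six signature genes measured together by branched-DNA assay after 50 nM siRNA pool, blank removed, divided by geometric mean of two housekeeping genes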. Direction: BNIP3L mRNA: higher = more BNIP3L transcript after knockdown; NDRG1 mRNA: higher = more NDRG1 transcript after knockdown; BNIP3 mRNA: higher = more BNIP3 transcript after knockdown; ALDOC mRNA: higher = more ALDOC transcript after knockdown; ACSL5 mRNA: higher = more ACSL5 transcript after knockdown.
The deposit covers about 14,000 reagents; below is a random part of them. Not given: the time to read-out.

no.	target	BNIP3L mRNA, set 1	NDRG1 mRNA, set 1	BNIP3 mRNA, set 1	ALDOC mRNA, set 1	ACSL5 mRNA, set 1
1	C1orf198	0.139	0.333	0.369	0.0232	0.192
2	ACBD4	0.0929	0.148	0.258	0.0795	0.0927
3	ZNHIT3	0.081	0.105	0.277	0.025	0.095
4	NDUFS2	0.0693	0.173	0.207	0.0195	0.0907
5	NEMP1	0.121	0.4	0.566	0.0153	0.161
6	POLR3GL	0.147	0.111	0.353	0.0495	0.18
7	VWA7	0.253	0.138	0.139	0.0402	0.164
8	TYMP	0.0605	0.119	0.206	0.0256	0.0637
9	PATZ1	0.0767	0.477	0.294	0.00843	0.156
10	MSMB	0.0757	0.194	0.222	0.0365	0.0883
11	CDH17	0.085	0.118	0.205	0.0282	0.107
12	PHLDA3	0.0967	0.0926	0.261	0.0184	0.119
13	SLC31A2	0.258	0.209	0.739	0.0541	0.161
14	SELENOW	0.346	0.829	0.687	0.0642	0.232
15	SIRPG	0.0768	0.188	0.231	0.00891	0.189
16	RCBTB1	0.111	0.36	0.471	0.0352	0.271
17	GALR2	0.189	0.248	0.272	0.0272	0.106
18	TNS1	0.168	0.0922	0.322	0.022	0.12
19	ISY1	0.0758	0.16	0.237	0.068	0.132
20	ARHGDIB	0.0806	0.0875	0.26	0.0179	0.125
21	LHX6	0.234	0.224	0.369	0.0121	0.17
22	MT-ND2	0.112	0.157	0.311	0.0165	0.0732
23	CAMK2D	0.133	0.0608	0.179	0.0136	0.226
24	B4GALT6	0.0725	0.121	0.226	0.0382	0.126
25	NT5C3A	0.084	0.197	0.22	0.0167	0.145
26	SCYL2	0.0948	0.193	0.591	0.0163	0.139
27	BTF3	0.0534	0.252	0.428	0.0146	0.0889
28	FBXW8	0.0448	0.264	0.347	0.0198	0.101
29	TRIM29	0.15	0.23	0.469	0.0238	0.295
30	ZBTB24	0.134	0.343	0.362	0.0508	0.193
31	PRODH2	0.0777	0.255	0.297	0.0569	0.126
32	CST6	0.135	0.204	0.255	0.037	0.203
33	CPE	0.101	0.401	0.134	0.0372	0.167
34	CLIP1	0.101	0.0868	0.211	0.00993	0.182

Ordered by “BNIP3L mRNA, set 1” (ascending): some entries from above
target	BNIP3L mRNA, set 1	NDRG1 mRNA, set 1	BNIP3 mRNA, set 1	ALDOC mRNA, set 1	ACSL5 mRNA, set 1
MT-ND2	0.112	0.157	0.311	0.0165	0.0732
CAMK2D	0.133	0.0608	0.179	0.0136	0.226
LHX6	0.234	0.224	0.369	0.0121	0.17

Next records follow.
no.	target	BNIP3L mRNA, set 1	NDRG1 mRNA, set 1	BNIP3 mRNA, set 1	ALDOC mRNA, set 1	ACSL5 mRNA, set 1
35	RETREG2	0.101	0.279	0.252	0.0267	0.243
36	PRR5L	0.174	0.221	0.24	0.0425	0.263
37	DAPP1	0.118	0.0716	0.215	0.028	0.192
38	FOXO3	0.117	0.652	0.279	0.0192	0.272
39	RBL2	0.0543	0.107	0.162	0.0239	0.0974
40	DGCR6L	0.208	0.364	0.442	0.263	0.188
41	PFKFB2	0.214	0.513	0.265	0.0071	0.395
42	TWIST1	0.0945	0.284	0.319	0.00888	0.123
43	ATP8B1	0.0787	0.261	0.305	0.0311	0.224
44	NLGN1	0.0848	0.696	0.256	0.0155	0.256
45	FOXL1	0.0764	0.192	0.35	0.011	0.223
46	PREPL	0.0537	0.549	0.374	0.0471	0.26
47	SEC14L1	0.146	0.164	0.369	0.0304	0.135
48	ZNF668	0.119	0.181	0.283	0.0515	0.149
49	BCAS4	0.0839	0.159	0.305	0.0346	0.1
50	NUDT22	0.142	0.462	0.343	0.0478	0.371
51	AP1S1	0.055	0.126	0.39	0.00449	0.141
52	NFASC	0.228	0.625	0.305	0.0301	0.106
53	CNTN6	0.13	0.106	0.323	0.061	0.144
54	LTAP1	0.0991	0.121	0.397	0.0167	0.095
55	HLA-DRB4	0.0888	0.169	0.285	0.0184	0.113
56	CAB39L	0.0675	0.243	0.262	0.0231	0.202
57	CEL	0.0453	0.195	0.297	0.0195	0.167
58	AMPD2	0.153	0.111	0.289	0.0566	0.189
59	ACR	0.0415	0.0751	0.404	0.00383	0.172
60	ZFP69B	0.132	0.12	0.314	0.0242	0.212
61	MKRN1	0.166	0.459	0.367	0.0645	0.389
62	PMCH	0.12	0.257	0.277	0.0222	0.207
63	ADCK1	0.0818	0.118	0.213	0.0103	0.275
